The record followed here is paper PMC7819943, “Rice protein-binding microarrays: a tool to detect cis-acting elements near promoter regions in rice”.

Amino acid sequences for entries named in this document (tags omitted).
UniProt Q0JBA9, entry or part of it: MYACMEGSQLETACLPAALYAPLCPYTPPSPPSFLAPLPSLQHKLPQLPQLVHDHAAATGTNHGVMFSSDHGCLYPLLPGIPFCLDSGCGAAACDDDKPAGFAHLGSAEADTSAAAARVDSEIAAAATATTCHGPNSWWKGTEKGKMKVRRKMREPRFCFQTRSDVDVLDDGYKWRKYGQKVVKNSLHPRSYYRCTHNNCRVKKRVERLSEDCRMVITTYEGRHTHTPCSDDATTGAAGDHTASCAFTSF

The list shows a part of the results.

The target of this test is OsWRKY34 (Oryza sativa, UniProt Q0JBA9 1-250). The test can be described thus: protein-binding microarray (RPBM); PBS, 2% BSA, 51.3 ng/ul salmon testes DNA, 50 uM zinc acetate, 200 nM TF, 25 C, 1 h; high values mean tight binding. To be noted: protein: recombinant; tags: N-terminal polyhistidine and DsRed monomer fusion (pET32a); label: CyDye5-dUTP incorporated in the synthesized complementary strand; 3' TTTTT single-stranded linker to array surface; dsDNA, one strand shown. The method, boiled down:
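Using Ni–NTA, transcription factors fused N-terminally to polyhistidine and DsRed were purified after expression in E. coli BL21-CodonPlus. These were incubated at 200 nM with a blocked, double-stranded custom Agilent array for 1 h at 25 °C in a buffer containing 50 µM zinc acetate, and the array was washed. The binding signal is per-feature fluorescence intensity (arbitrary units) on an Axon 4000B scanner.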
Regarding “TCCTCTCCGATTTACTCCTCTCCTTTTTGCCCTATCGCCTCGGAGTCACCTAGTGCAG”, the binding signal is 10300 fluorescence intensity (a.u.). In the case of “CAAAATCCTACATGTATATGCATCTCATTTTGTTCTTTTACGGAGTCACCTAGTGCAG” it was 9670 fluorescence intensity (a.u.); in that of “CCCGCCCATCTGTCTCCATCTCTCCCCATCCTTTACTTTTCGGAGTCACCTAGTGCAG”, 12300 fluorescence intensity (a.u.). In the case of “CTTTATTTTTTTTTCGGATCGAATTGCCACGTAAGCACCACGGAGTCACCTAGTGCAG” it was 8270 fluorescence intensity (a.u.). On to “TACATATACGCTCGTCTCGCCGTCGCAACCTCGTCACCTACGGAGTCACCTAGTGCAG”, for which the binding signal is 8110 fluorescence intensity (a.u.). Consider “GTTCGTGGTGGTACCGATTTCATTTTTTGCTATACATATGCGGAGTCACCTAGTGCAG”, for which the binding signal is 8860 fluorescence intensity (a.u.). In the case of “CGCACCCAGGAGACTGGAGCCGTCGCGTTGCGTTGACTCCCGGAGTCACCTAGTGCAG” it was 10200 fluorescence intensity (a.u.); in that of “CGTCTAATCTGGTTTCCATCTACAGCAGTTGTATTCATCACGGAGTCACCTAGTGCAG”, 9540 fluorescence intensity (a.u.).

As for “CTGGCGCATTTCGATTCGAGTTTGTCTCCTGCGCCTTCGACGGAGTCACCTAGTGCAG”, the binding signal is 11400 fluorescence intensity (a.u.). Take “GAAATGTGGGAGGGGTTTTCTTACAAATGTTATATAGACACGGAGTCACCTAGTGCAG”: the binding signal is 13900 fluorescence intensity (a.u.). As to “TCGTTCTTTAGTTTCTACCTTTGTGCTTGTGCGTTTGTAACGGAGTCACCTAGTGCAG”, the binding signal was 9710 fluorescence intensity (a.u.). With “GCAATTCCTGAATCTTTAACTATGCTGCTGCCTACTCTACCGGAGTCACCTAGTGCAG”, the binding signal was 8370 fluorescence intensity (a.u.). Turning to “TAATTAGAGCTCATCACCACGCCTCTCGCCTCACATCATACGGAGTCACCTAGTGCAG”, the binding signal was 9270 fluorescence intensity (a.u.). Take “GAATATTTTTCATAATCACCATCATCATTATTCTTCGCTACGGAGTCACCTAGTGCAG”: the binding signal was 8040 fluorescence intensity (a.u.). Then “TCCCCAACCTCCGGCCAGCTCCAACCGCCGCCCACGCCGCCGGAGTCACCTAGTGCAG”, with 10300 fluorescence intensity (a.u.); and “AACTCTATCTAGTTTGCTCAGACCCCACTGCTATTTTTTTCGGAGTCACCTAGTGCAG”, with 10500 fluorescence intensity (a.u.); and “GCCACAACCTCTAGTGCTCAACCAACAACCATCTCCTTTTCGGAGTCACCTAGTGCAG”, with 9320 fluorescence intensity (a.u.). “CATATCTCTGCAGTATGTGTTACACTGTCATCTTTTCATGCGGAGTCACCTAGTGCAG”: the binding signal is 8350 fluorescence intensity (a.u.). With “ACTTTCTTTTTCATAATTTCATTTAGTGCTGACTTTGTTGCGGAGTCACCTAGTGCAG”, the binding signal was 8810 fluorescence intensity (a.u.). Take “TGCTTCATATTATAAGTCGTTTATTTTTTTCCTAATCAAACGGAGTCACCTAGTGCAG”: the binding signal is 8830 fluorescence intensity (a.u.). Regarding “GGTTGAGGCTGTTTTCCGATCGTTCCGACCGTTTTCATCCCGGAGTCACCTAGTGCAG”, the binding signal was 8700 fluorescence intensity (a.u.). In the case of “TTAAATATTTGAGGGGTCGATATTTCTGGTATTGGTATTACGGAGTCACCTAGTGCAG” it was 10500 fluorescence intensity (a.u.). For the sequence “TTTTATTACCTATATTTCACTTTGGACCACCCTTAAACATCGGAGTCACCTAGTGCAG”, the binding signal was 8410 fluorescence intensity (a.u.). Then “ATCTTTGTTCTTGTTTGCTTTCTTCATCTGACGAGTGTTTCGGAGTCACCTAGTGCAG”, with 8100 fluorescence intensity (a.u.); and “GTTAGTTCATCTCCTCCTTGACCGCGTTTCCATCACTGATCGGAGTCACCTAGTGCAG”, with 10700 fluorescence intensity (a.u.). Regarding “CACTCCCGACCCTTTCCGCATCATCACGCTCACGCAGCCCCGGAGTCACCTAGTGCAG”, the binding signal was 8190 fluorescence intensity (a.u.). In the case of “CGCTCTCGATCACCATCTTCTGCTTCATCCATCATCCACTCGGAGTCACCTAGTGCAG” it was 8130 fluorescence intensity (a.u.); in that of “TTCGGAAGCCCATCATCTCATCCGGTTCGTTATTTTTATTCGGAGTCACCTAGTGCAG”, 8220 fluorescence intensity (a.u.); in that of “CTACCTCGGCGACCCGCCATCATGTCGATTGCTCTACGCGCGGAGTCACCTAGTGCAG”, 8350 fluorescence intensity (a.u.). Take “TAGTTCTTTCATTCGTGTCTGAAAACCCTTTTCGAGTTTCCGGAGTCACCTAGTGCAG”: the binding signal is 10500 fluorescence intensity (a.u.).

Turning to “GGTTTCTTGTGTTGGGAGAGGATTGATGGGCTACCTTGGACGGAGTCACCTAGTGCAG”, the binding signal is 8360 fluorescence intensity (a.u.).

On to “AATCTGCAAAACCAGACATTCGACATCTTTATTGGTATTTCGGAGTCACCTAGTGCAG”, for which the binding signal is 9090 fluorescence intensity (a.u.). Take “TAGCCGCTCAATTTTATCATGCTGTTTTTTGCGCACTTAACGGAGTCACCTAGTGCAG”: the binding signal was 10800 fluorescence intensity (a.u.). In the case of “ATTCATATTTGAATGTATGTTTTTTCTGTCTGTTTTATGTCGGAGTCACCTAGTGCAG” it was 8500 fluorescence intensity (a.u.). With “ACCAATACTCAATTATTTTTCTTCTTTGTATTTCAGTCTACGGAGTCACCTAGTGCAG”, the binding signal is 9280 fluorescence intensity (a.u.).

As to “TTCGTTCCGATTCTTTTTTTTTCATTTGCTATGCATCTTCCGGAGTCACCTAGTGCAG”, the binding signal was 11000 fluorescence intensity (a.u.). Turning to “ACACTGTAGCCCCTGTACACCCATCAGATCTGGCTTTTTACGGAGTCACCTAGTGCAG”, the binding signal was 9400 fluorescence intensity (a.u.). As for “GTAGGCAGTAAGTACTATATACTAGTTGGGGTGTATAAGGCGGAGTCACCTAGTGCAG”, the binding signal was 8440 fluorescence intensity (a.u.). Regarding “CGATGACTCGTAATTTAATGTTTCATACCTCGCTTTATACCGGAGTCACCTAGTGCAG”, the binding signal is 10000 fluorescence intensity (a.u.). Take “TTATACTCCTACTTTATATTTTGCTTACAATGCCACATCACGGAGTCACCTAGTGCAG”: the binding signal was 8880 fluorescence intensity (a.u.).

Regarding “CTACGCCCTAAGTTACATTCTCTACAATATTGTTCTCTAACGGAGTCACCTAGTGCAG”, the binding signal is 9890 fluorescence intensity (a.u.). With “ACAACAATTTTGTACTCCCTCTATCCCCATTTTAAATACACGGAGTCACCTAGTGCAG”, the binding signal is 8130 fluorescence intensity (a.u.).
